Results are given in words; binding and its absence hold for the method and conditions named. Binding seen in cells or lysates may run through a third protein. Binding calls can cover weak binding; strength is not graded here.
T1: VE-cadherin (human (endogenous in HUVECs)) (UniProt P33151)
T1 sequence: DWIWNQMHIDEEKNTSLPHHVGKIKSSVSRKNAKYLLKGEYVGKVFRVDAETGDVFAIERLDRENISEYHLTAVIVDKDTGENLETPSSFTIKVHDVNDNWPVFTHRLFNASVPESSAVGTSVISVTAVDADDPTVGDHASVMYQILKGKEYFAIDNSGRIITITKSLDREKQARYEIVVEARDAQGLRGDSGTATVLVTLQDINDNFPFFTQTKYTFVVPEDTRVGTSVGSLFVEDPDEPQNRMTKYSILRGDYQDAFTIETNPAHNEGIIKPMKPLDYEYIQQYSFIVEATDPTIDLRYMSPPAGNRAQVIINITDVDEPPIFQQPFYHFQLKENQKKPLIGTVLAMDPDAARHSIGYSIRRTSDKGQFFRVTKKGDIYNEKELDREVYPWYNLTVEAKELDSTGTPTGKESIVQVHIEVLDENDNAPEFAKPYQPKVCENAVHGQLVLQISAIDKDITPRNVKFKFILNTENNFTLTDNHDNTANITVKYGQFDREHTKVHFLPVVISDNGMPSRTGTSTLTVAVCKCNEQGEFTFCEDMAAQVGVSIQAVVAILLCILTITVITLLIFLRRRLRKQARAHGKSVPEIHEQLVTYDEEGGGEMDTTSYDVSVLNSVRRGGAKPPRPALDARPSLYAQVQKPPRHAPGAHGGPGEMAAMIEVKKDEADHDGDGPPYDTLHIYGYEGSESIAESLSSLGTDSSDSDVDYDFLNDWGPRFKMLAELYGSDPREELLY

Amino acid sequences for entries named in this document (tags omitted). A change or cut given only in a name is not applied to a line headed by its entry.
UniProt P18206: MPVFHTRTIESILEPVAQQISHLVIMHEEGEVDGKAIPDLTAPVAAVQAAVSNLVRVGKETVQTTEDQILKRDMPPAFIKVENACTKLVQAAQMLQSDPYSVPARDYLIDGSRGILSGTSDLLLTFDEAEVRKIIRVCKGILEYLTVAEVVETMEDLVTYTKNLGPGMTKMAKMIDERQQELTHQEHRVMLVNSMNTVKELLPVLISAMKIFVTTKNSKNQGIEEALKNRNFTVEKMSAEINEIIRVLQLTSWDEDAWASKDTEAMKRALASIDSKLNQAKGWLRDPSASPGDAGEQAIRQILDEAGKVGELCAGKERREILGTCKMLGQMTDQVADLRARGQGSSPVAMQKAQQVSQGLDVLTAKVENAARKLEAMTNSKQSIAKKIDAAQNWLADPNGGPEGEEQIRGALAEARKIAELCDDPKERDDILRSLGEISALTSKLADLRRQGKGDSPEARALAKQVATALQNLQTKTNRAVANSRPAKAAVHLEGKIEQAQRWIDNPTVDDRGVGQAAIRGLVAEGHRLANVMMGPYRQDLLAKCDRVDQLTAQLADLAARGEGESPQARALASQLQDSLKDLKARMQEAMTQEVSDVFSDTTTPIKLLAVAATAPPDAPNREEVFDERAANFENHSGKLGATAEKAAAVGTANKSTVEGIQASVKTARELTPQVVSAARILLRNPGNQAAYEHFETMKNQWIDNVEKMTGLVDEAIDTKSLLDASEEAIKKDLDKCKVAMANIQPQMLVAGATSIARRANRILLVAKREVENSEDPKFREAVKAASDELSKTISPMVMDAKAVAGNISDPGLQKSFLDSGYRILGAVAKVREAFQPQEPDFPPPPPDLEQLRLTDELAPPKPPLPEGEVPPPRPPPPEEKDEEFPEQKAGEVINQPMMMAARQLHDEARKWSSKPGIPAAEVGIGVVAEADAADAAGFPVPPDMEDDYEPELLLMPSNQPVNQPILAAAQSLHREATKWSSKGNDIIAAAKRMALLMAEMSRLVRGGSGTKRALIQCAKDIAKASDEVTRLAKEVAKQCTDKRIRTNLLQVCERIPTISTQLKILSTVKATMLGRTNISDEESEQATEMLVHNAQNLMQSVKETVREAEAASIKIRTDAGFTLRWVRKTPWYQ


Assays:
[1] = target: T1, VE-cadherin (human (endogenous in HUVECs)); assay: co-IP; HUVECs (siControl or siWNT5a) after scratch-wound; cells cross-linked with 0.5 mM DSP, 20 min RT; pellet of the lysate digested in SDS IP buffer, 10 min 100°C, diluted in lysis buffer (25 mM Tris/HCl pH 7.5, 1% NP-40, 1% deoxycholic acid, 150 mM NaCl); IP with 2 μg anti-vinculin (V9264) or anti-VE-cadherin (sc-9989) on protein G agarose, overnight 4°C; Western blot
[2] = target: T1, VE-cadherin (human (endogenous in HUVECs)); assay: proximity ligation; HUVECs (siControl or siWNT5a) after scratch-wound, fixed; Duolink In Situ Red Mouse/Rabbit kit with rabbit anti-vinculin (V4139) and mouse anti-VE-cadherin (sc-9989); PLA dots counted only at adherens junctions (VE-cadherin staining)
[3] = target: vinculin (human (endogenous in HUVECs)) (UniProt P18206); assay: co-IP; HUVECs (siControl or siWNT5a) after scratch-wound; cells cross-linked with 0.5 mM DSP, 20 min RT; pellet of the lysate digested in SDS IP buffer, 10 min 100°C, diluted in lysis buffer (25 mM Tris/HCl pH 7.5, 1% NP-40, 1% deoxycholic acid, 150 mM NaCl); IP with 2 μg anti-vinculin (V9264) or anti-VE-cadherin (sc-9989) on protein G agarose, overnight 4°C; Western blot

Molecule | binding [1] | binding [2] | binding [3]
vinculin (from UniProt P18206-2) | binds | binds | –
VE-cadherin (protein, UniProt P33151 48-784) DWIWNQMHIDEEKNTSLPHHVGKIKSSVSRKNAKYLLKGEYVGKVFRVDAETGDVFAIERLDRENISEYHLTAVIVDKDTGENLETPSSFTIKVHDVNDNWPVFTHRLFNASVPESSAVGTSVISVTAVDADDPTVGDHASVMYQILKGKEYFAIDNSGRIITITKSLDREKQARYEIVVEARDAQGLRGDSGTATVLVTLQDINDNFPFFTQTKYTFVVPEDTRVGTSVGSLFVEDPDEPQNRMTKYSILRGDYQDAFTIETNPAHNEGIIKPMKPLDYEYIQQYSFIVEATDPTIDLRYMSPPAGNRAQVIINITDVDEPPIFQQPFYHFQLKENQKKPLIGTVLAMDPDAARHSIGYSIRRTSDKGQFFRVTKKGDIYNEKELDREVYPWYNLTVEAKELDSTGTPTGKESIVQVHIEVLDENDNAPEFAKPYQPKVCENAVHGQLVLQISAIDKDITPRNVKFKFILNTENNFTLTDNHDNTANITVKYGQFDREHTKVHFLPVVISDNGMPSRTGTSTLTVAVCKCNEQGEFTFCEDMAAQVGVSIQAVVAILLCILTITVITLLIFLRRRLRKQARAHGKSVPEIHEQLVTYDEEGGGEMDTTSYDVSVLNSVRRGGAKPPRPALDARPSLYAQVQKPPRHAPGAHGGPGEMAAMIEVKKDEADHDGDGPPYDTLHIYGYEGSESIAESLSSLGTDSSDSDVDYDFLNDWGPRFKMLAELYGSDPREELLY | – | – | binds

— PMC6684320
